# From US20140031261
# Protein sequences, listed by entry. Tags and fused reporters are not part of them. Lines headed by an entry give the natural chain unless they say otherwise; changes in a name come on top.
# UniProt Q46731: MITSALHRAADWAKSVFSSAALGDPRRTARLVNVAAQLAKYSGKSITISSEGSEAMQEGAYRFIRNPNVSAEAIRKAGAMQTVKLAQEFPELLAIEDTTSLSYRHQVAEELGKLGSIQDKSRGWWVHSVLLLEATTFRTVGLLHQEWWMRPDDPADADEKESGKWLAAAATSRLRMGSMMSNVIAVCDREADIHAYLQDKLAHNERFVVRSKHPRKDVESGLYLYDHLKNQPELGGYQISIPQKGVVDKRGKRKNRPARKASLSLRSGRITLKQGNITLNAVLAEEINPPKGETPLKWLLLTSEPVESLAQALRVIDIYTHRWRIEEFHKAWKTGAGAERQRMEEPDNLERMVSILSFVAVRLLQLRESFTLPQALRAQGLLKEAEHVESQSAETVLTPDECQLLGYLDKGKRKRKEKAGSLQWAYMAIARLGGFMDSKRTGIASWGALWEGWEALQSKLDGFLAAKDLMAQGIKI
# Biological target: hyperactive Tn5 transposase (UniProt Q46731)
# Assay: activity assay
# Details: in vitro transposition, dilution in parallel with ME; Tm 58 C vs 44 C; purified recombinant protein; protein details: 10 U/ul stock
row,Sequence,activity on this sequence
1,CGTTGTGTGGACGAGACAG (double strand) [11G:C(G1)],active

# Biological target: hyperactive Tn5 transposase (UniProt Q46731)
# Assay: enzyme reaction in vitro
# Details: 5'-phosphorylated end sequence; tagmentation; Mg2+, 37 C; purified recombinant protein; protein details: 10 U/ul stock
row,Sequence,activity on this sequence
1,AGATGTGTATAAGAGACAG (double strand) [ME transferred strand / 19-base non-transferred strand],active
2,AGATGTGTATAAGAGACAG / CTGTCTCT [ME / 8-base non-transferred],less active
3,AGATGTGTATAAGAGACAG / CTGTCTCTT [ME / 9-base non-transferred],less active
4,AGATGTGTATAAGAGACAG / CTGTCTCTTA [ME / 10-base non-transferred],less active
5,AGATGTGTATAAGAGACAG / CTGTCTCTTAT [ME / 11-base non-transferred],less active
6,AGATGTGTATAAGAGACAG / CTGTCTCTTATA [ME / 12-base non-transferred],active
7,AGATGTGTATAAGAGACAG / CTGTCTCTTATAC [ME / 13-base non-transferred],active
8,AGATGTGTATAAGAGACAG / CTGTCTCTTATACA [ME / 14-base non-transferred],active
9,AGATGTGTATAAGAGACAG / CTGTCTCTTATACAC [ME / 15-base non-transferred],active
10,AGATGTGTATAAGAGACAG / CTGTCTCTTATACACA [ME / 16-base non-transferred],active
11,AGATGTGTATAAGAGACAG / CTGTCTCTTATACACAT [ME / 17-base non-transferred],active
12,AGATGTGTATAAGAGACAG / CTGTCTCTTATACACATC [ME / 18-base non-transferred],active

# For at least one entry, the source does not settle the construct or the ends of the probe. For some of these results: A weaker result is weaker than the reference pair of the same experiment.
